Residue numbers refer to the chain shown, from its start. These are yes or no findings as the source states them, for the method shown. Binding seen in cells or lysates may run through a third protein. Some binding calls cover weakened binding; strength is not graded here. Sequences can lack the tags named with a protein.
Assays:
[1] = molecular target: T1, FLAG-ING2WT, full-length wild-type ING2 (UniProt Q9H160); experiment: co-IP; FLAG immunoprecipitates (anti-FLAG M2-conjugated agarose, eluted with 0.4 mg/ml FLAG peptide) from HT1080 populations stably expressing FLAG-ING2 forms; lysis buffer 50 mM Tris-HCl pH 7.4, 250 mM NaCl, 0.5% Triton X-100, 10% glycerol; immunoblot
T1 sequence: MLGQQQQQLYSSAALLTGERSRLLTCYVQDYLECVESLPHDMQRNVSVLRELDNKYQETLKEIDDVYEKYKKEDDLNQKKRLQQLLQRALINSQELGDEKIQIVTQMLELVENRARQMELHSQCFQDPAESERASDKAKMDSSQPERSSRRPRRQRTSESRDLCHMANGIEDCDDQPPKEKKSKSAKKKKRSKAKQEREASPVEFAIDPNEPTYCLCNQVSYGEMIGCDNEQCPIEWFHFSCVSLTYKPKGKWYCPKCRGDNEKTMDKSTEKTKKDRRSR

Sequences of proteins named here, by UniProt entry; tags and fusion partners are left off.
UniProt Q13547: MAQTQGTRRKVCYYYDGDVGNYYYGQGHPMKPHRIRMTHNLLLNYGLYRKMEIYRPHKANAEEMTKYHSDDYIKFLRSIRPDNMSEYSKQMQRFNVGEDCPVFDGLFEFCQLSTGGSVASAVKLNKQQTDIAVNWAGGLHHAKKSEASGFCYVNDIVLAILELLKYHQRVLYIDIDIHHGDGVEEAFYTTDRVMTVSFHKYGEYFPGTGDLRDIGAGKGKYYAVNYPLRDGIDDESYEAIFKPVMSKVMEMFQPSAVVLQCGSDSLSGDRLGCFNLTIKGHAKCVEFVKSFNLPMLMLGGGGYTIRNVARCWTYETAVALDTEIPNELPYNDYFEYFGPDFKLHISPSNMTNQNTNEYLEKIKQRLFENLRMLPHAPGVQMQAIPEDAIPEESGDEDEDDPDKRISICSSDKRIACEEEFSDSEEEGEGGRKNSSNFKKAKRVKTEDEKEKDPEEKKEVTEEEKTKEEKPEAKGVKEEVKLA

[2] = molecular target: T2, FLAG-ING2_(6K/Rmt), full-length (UniProt Q9H160); experiment: as above
T2 sequence: T1 sequence with K272A, K274A, K275A, R277A, R278A, R280A

HDAC1 (histone deacetylase 1) (from UniProt Q13547 1-482) (enzyme)
binding [1]: binds | binding [2]: binds

B1: SAP30 (protein, UniProt O75446 1-220)
chain: MNGFTPDEMSRGGDAAAAVAAVVAAAAAAASAGNGTGAGTGAEVPGAGAVSAAGPPGAAGPGPGQLCCLREDGERCGRAAGNASFSKRIQKSISQKKVKIELDKSARHLYICDYHKNLIQSVRNRRKRKGSDDDGGDSPVQDIDTPEVDLYQLQVNTLRRYKRHFKLPTRPGLNKAQLVEIVGCHFRSIPVNEKDTLTYFIYSVKNDKNKSDLKVDSGVH
binding [1]: binds | binding [2]: binds

Source: article PMC3705588
